Values of other authors as cited in patent US20040115163A1, “Cosmetic product” (priority 2001, published 2004).
For at least one compound, name, drawing or mass did not settle the structure.

How the values were obtained:
Details in all cases: as known in the state of the art; + / − not defined
[1] = test system: desmoplakine III (DP3)
[2] = test system: heparin-binding EGF-like growth factor (HBEGF)
[3] = test system: cytokeratine 6 (CK6)
[4] = test system: cellular retinoic acid-binding protein II (CRABP-II)
[5] = test system: Interleukine-1 alpha (IL-1A)
[6] = test system: cytokeratine 1 (CK1)
[7] = test system: desmoplakine I & II (DPI & DPII)
[8] = test system: transglutaminase 1 (TGM1)

For `CC1=C(/C=C/C(C)=C/C=C/C(C)=C/C(=O)O)C(C)(C)CCC1` [RA, retinoic acid], the “effect of retinoic acid on DP3 gene expression” value [1] is listed as “−”, the “effect of retinoic acid on HBEGF gene expression” value [2] is listed as “+” and the “effect of retinoic acid on CK6 gene expression” value [3] is listed as “−”. For the same compound, the “effect of retinoic acid on CRABP-II gene expression” value [4] was “+”, the “effect of retinoic acid on IL-1A gene expression” value [5] was “+” and the “effect of retinoic acid on CK1 gene expression” value [6] was “−”. For the same compound, the “effect of retinoic acid on DPI & DPII gene expression” value [7] was “−” and the “effect of retinoic acid on TGM1 gene expression” value [8] was “−”.
